Results: publication PMC5488176

Biological target: MTB, yeast two-hybrid fusion (Arabidopsis thaliana)
Assay: two-hybrid; yeast two-hybrid, fusions to activation domain (pDEST22) and binding domain (pDEST32); growth on media lacking histidine with 3-AT (-LTH) or lacking adenine (-LTA), recorded after 4 d; three technical and three biological replicates

B1: HAKAI, yeast two-hybrid fusion (protein, UniProt Q9LFC0 1-360)
chain: MLQIRLRRDSPTETGNGARPSPTETVTVACPDHLVLADLPVAKGIGSVTPTTVIKPVGRRSRRQLGERVHFCVRCDFPIAIYGRLIPCDHAFCLECARSDSICYLCDERIQKIQTIKMMEGIFICAAPHCLRSFLKKLDFEAHVHDLHGSLLQADAEKEDGNQSDVQSTMQQSSASESTLRAPLRSQLQQSRELNRSASFAKSQSGFSQVQNYPPDSDNSRPPGFETASPKPGIRFPDYPQPMNLMQPPSLPVPMNQNPGLPQQFGFPSYPTTESGSSQQFFNGAQYEMTRTESGGSEQSSLLGYPPPSPMTNLNFQGSYPPPSWNPGMAPPHTTQQVNRGRDGQSFGWPQENRDGFGQE
binding: binds weakly

These are yes or no findings as the source states them, for the method shown. Binding can be weak; no strength is given. Sequences can lack the tags named with a protein.
